Laboratory results: PubChem BioAssay AID602196 (INSERM, 2012)
The whole screen tested about 23,000 reagents; shown is a random part of them. Of all reagents, 455 (2%) were called active. 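Active includes both protection and sensitisation; some change values fall well beyond the stated -50 to +50 range.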 Unmarked entries are inactive. Further read-outs or replicates are left out here. Not stated in the record: the amount of reagent.

Screen: 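Modifiers of cisplatin sensitivity in A549 cells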
Cells: human A549 lung cancer cells
Reagents: siRNA pair against human genes
Time to read-out: 48 h transfection before cisplatin; time from cisplatin to read-out not stated
Conditions: cisplatin at a dose killing half of control-siRNA cells; exact dose and duration not given
Measurement: 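Cisplatin cell death as a shift from the 50% death seen with control siRNA; siRNAs toxic or growth-blocking alone scored 0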
Reading the numbers: two-siRNA summed score (-2 to +2): higher = both siRNAs protect from cisplatin killing; -2 means both sensitise; mean protection from cisplatin (shift in death): higher = protection from cisplatin killing
Active means: 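siRNAs harmful alone (LDH or WST-1) get 0; others get +1 for less and -1 for more cisplatin killing; genes are active when the two siRNAs give the same sign, summing to ±2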
Meaning of the calls: active = both siRNAs shift cisplatin killing the same way; inactive = no consistent shift, or siRNA harmful alone

TRMT61B → two-siRNA summed score (-2 to +2) = 0; mean protection from cisplatin (shift in death) (%) = 5.2
LOC150580 → two-siRNA summed score (-2 to +2) = 0; mean protection from cisplatin (shift in death) (%) = 6.2
MRPL12 → two-siRNA summed score (-2 to +2) = 1; mean protection from cisplatin (shift in death) (%) = 7.3
PPP1R12C → two-siRNA summed score (-2 to +2) = 0; mean protection from cisplatin (shift in death) (%) = 8
LOC442512 → two-siRNA summed score (-2 to +2) = 0; mean protection from cisplatin (shift in death) (%) = 15.1
GK → two-siRNA summed score (-2 to +2) = 1; mean protection from cisplatin (shift in death) (%) = 9.2
RFX8 → two-siRNA summed score (-2 to +2) = 0; mean protection from cisplatin (shift in death) (%) = 0.1
MARVELD3 → two-siRNA summed score (-2 to +2) = 1; mean protection from cisplatin (shift in death) (%) = 24.2
PGPEP1 → two-siRNA summed score (-2 to +2) = 0; mean protection from cisplatin (shift in death) (%) = 10.2
LOC151320 → two-siRNA summed score (-2 to +2) = -1; mean protection from cisplatin (shift in death) (%) = 9.5
SULT1C2 → two-siRNA summed score (-2 to +2) = 0; mean protection from cisplatin (shift in death) (%) = 2.6
GATAD1 → two-siRNA summed score (-2 to +2) = -1; mean protection from cisplatin (shift in death) (%) = -13.9
SLC6A20 → two-siRNA summed score (-2 to +2) = 0; mean protection from cisplatin (shift in death) (%) = 4.4
LOC389100 → two-siRNA summed score (-2 to +2) = 1; mean protection from cisplatin (shift in death) (%) = 6.8
SELENOW → two-siRNA summed score (-2 to +2) = 0; mean protection from cisplatin (shift in death) (%) = 6.6
SNX27 → two-siRNA summed score (-2 to +2) = 0; mean protection from cisplatin (shift in death) (%) = 11.9
TBX3 → two-siRNA summed score (-2 to +2) = -1; mean protection from cisplatin (shift in death) (%) = -3.7
LOC402221 → two-siRNA summed score (-2 to +2) = 0; mean protection from cisplatin (shift in death) (%) = 3.1
SPATA12 → two-siRNA summed score (-2 to +2) = 0; mean protection from cisplatin (shift in death) (%) = 11.1
LOC389269 → two-siRNA summed score (-2 to +2) = 0; mean protection from cisplatin (shift in death) (%) = 11.5
WNT3A → two-siRNA summed score (-2 to +2) = 0; mean protection from cisplatin (shift in death) (%) = 0.8
